Laboratory results reported in paper PMC6199276.
No constants are given. Whether binding was seen depends on the method and setting. Binding seen in cells or lysates may run through a third protein. These calls come from enrichment with a bait or labelling near it, and not all partners need be listed.

Chains of the proteins cited; added tags and fusions are not shown. Lines headed by an entry give the natural chain unless they say otherwise; changes in a name come on top.
UniProt O16850: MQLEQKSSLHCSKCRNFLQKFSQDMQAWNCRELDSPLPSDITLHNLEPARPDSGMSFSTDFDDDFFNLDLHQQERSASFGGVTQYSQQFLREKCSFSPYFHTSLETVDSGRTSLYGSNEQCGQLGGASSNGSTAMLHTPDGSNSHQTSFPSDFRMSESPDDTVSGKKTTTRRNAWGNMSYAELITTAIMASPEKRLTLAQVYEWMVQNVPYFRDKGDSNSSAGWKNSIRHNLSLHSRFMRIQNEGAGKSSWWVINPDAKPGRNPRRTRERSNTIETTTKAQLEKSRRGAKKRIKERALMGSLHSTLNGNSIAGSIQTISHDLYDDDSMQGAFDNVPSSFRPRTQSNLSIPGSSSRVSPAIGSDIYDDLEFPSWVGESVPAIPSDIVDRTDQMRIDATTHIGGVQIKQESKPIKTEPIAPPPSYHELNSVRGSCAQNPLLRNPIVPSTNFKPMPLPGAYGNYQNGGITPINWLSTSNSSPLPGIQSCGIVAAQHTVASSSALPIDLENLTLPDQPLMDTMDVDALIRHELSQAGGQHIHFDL

Target: DAF-16::GFP (C. elegans) (UniProt O16850)
Test: affinity purification with mass spectrometry; DAF-16::GFP immunoprecipitated with anti-GFP antibody (3E6) on Protein A resin from whole-worm lysates of wild type, daf-2(e1370) and daf-18(mg198) animals; 50 mM HEPES pH 7.4, 150 mM KCl, 0.05% NP-40; eluted with glycine pH 2.6; LC-MS/MS; repeated with anti-GFP mFX73 and independently constructed lines

| Binder | binding |
| --- | --- |
| HLH-30 (protein, UniProt H2KZZ2 1-524) MIRQLNSPGGGGGLGLNNPRAQQPPGAQQQQQPQQAQQQFYDDEPYQANASQFRFGAGKSMEQRRETGNLIPIAQRSMGSTSTPFGSAPTQSYFGGGSSGAALSSPRKMQQTHQMLFGNIQPPRGSPPSDGSDKIHRFGESPTPGGVGGVFGTELDDLIIDELMGMEDDQRMRPGATRPMTIGGEKTMSMARPIPGASSRAGSGHSGSPITIPNAMSNNFRQVVSSSAPTSSIDIEKMIGAVSNGGGNSGGDNDPEDYYRDRRKKDIHNMIERRRRYNINDRIKELGQMLPKNTSEDMKLNKGTILKASCDYIRVLQKDREQAMKTQQQQKSLESTAHKYADRVKELEEMLARQGVQVPPSHLPPIPKVIERPIKQEIDESPPNHTPTGSFVSSSGFLSEVTNNTAAMQITSPNDSRPNNFMNNSAPSDSFFSVGSASPPDYRTSSGTASWKLPGSNAFSDLMMDDLNPMMNGDPLISSAGAHPSPHFHSSQMSPDIHWDASGFSPDPINTQQSNSGHYHMDFS | binds |
| FTT-2 (protein, UniProt Q20655 1-248) MSDGKEELVNRAKLAEQAERYDDMAASMKKVTELGAELSNEERNLLSVAYKNVVGARRSSWRVISSIEQKTEGSEKKQQMAKEYREKVEKELRDICQDVLNLLDKFLIPKAGAAESKVFYLKMKGDYYRYLAEVASGDDRNSVVEKSQQSYQEAFDIAKDKMQPTHPIRLGLALNFSVFFYEILNAPDKACQLAKQAFDDAIAELDTLNEDSYKDSTLIMQLLRDNLTLWTSDAATDDTDANETEGGN | binds |
| PAR-5 (protein, UniProt P41932 1-248) MSDTVEELVQRAKLAEQAERYDDMAAAMKKVTEQGQELSNEERNLLSVAYKNVVGARRSSWRVISSIEQKTEGSEKKQQLAKEYRVKVEQELNDICQDVLKLLDEFLIVKAGAAESKVFYLKMKGDYYRYLAEVASEDRAAVVEKSQKAYQEALDIAKDKMQPTHPIRLGLALNFSVFYYEILNTPEHACQLAKQAFDDAIAELDTLNEDSYKDSTLIMQLLRDNLTLWTSDVGAEDQEQEGNQEAGN | binds |
